Drawing on PMC7389436, this text covers binding for 2 molecules.

By UniProt entry, the sequences of proteins in these tests, tags left out.
UniProt D4A523: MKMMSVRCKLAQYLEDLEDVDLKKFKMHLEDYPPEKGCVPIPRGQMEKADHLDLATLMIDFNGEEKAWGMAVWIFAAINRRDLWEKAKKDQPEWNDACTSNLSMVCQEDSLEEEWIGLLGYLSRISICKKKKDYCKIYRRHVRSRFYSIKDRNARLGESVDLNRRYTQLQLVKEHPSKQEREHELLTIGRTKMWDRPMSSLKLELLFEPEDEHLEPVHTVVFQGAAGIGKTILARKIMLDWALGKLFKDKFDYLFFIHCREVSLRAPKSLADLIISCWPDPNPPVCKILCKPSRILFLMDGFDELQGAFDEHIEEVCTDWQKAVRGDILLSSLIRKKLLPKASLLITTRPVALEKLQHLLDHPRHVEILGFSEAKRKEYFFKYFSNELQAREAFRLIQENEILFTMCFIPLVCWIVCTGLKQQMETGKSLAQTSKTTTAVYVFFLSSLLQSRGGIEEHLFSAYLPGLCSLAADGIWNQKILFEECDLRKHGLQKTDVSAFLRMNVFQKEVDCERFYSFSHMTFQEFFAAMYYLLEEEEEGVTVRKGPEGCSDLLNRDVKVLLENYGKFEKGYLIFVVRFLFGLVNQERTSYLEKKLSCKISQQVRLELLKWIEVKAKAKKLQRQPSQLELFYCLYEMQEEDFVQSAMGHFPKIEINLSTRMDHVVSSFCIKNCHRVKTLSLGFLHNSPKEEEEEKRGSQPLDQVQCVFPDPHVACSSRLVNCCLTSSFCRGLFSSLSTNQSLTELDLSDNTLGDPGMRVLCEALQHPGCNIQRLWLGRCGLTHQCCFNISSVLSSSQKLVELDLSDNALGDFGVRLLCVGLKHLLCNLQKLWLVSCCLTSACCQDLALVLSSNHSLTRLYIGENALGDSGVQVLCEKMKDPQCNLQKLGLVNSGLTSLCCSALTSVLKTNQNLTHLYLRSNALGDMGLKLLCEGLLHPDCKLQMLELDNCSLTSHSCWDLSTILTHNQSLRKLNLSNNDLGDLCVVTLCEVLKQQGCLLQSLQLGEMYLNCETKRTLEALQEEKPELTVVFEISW

Results are given in words; binding and its absence hold for the method and conditions named. Binding seen in cells or lysates may run through a third protein. Some binding calls cover weakened binding; strength is not graded here.

The target of assay [1] is T1, thioredoxin interacting protein (TXNIP) (UniProt Q5M7W1).
T1 sequence: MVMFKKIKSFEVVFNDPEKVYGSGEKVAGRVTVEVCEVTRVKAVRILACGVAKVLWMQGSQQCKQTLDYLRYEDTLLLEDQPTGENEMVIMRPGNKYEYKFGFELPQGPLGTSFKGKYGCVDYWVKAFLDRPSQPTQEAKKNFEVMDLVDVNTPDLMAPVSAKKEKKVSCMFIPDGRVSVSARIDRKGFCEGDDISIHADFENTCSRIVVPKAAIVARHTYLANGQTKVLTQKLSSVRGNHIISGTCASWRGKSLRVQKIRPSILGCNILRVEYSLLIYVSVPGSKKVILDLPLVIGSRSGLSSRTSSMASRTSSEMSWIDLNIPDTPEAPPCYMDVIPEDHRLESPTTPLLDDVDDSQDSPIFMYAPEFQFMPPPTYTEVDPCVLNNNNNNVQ
Kind of assay: co-IP; Catch and Release Reversible Immunoprecipitation System Kit; IP with antibody to TXNIP or antibody to NLRP3; rabbit/mouse IgG as negative control; sample not stated.

The target of assay [2] is NLR family pyrin domain-containing 3 (NLRP3) (UniProt D4A523). The description is as above.

Consider “NLR family pyrin domain-containing 3 (NLRP3) (from UniProt D4A523 1-1035)”, for which the binding entry in assay [1] is given as “binds”.

B1: thioredoxin interacting protein (TXNIP) (protein, UniProt Q5M7W1 1-394)
chain: T1 sequence
For the molecule B1, the binding result in assay [2] is on record as “binds”.
